Experimental data: publication doi:10.1101/2025.10.22.683840
Results are given in words; binding and its absence hold for the method and conditions named. Binding seen in cells or lysates may run through a third protein. Here binding means that the protein was enriched with, or labelled near, the bait; the list need not be complete.

Sequences of proteins named here, by UniProt entry; tags and fusion partners are left off.
UniProt Q92878: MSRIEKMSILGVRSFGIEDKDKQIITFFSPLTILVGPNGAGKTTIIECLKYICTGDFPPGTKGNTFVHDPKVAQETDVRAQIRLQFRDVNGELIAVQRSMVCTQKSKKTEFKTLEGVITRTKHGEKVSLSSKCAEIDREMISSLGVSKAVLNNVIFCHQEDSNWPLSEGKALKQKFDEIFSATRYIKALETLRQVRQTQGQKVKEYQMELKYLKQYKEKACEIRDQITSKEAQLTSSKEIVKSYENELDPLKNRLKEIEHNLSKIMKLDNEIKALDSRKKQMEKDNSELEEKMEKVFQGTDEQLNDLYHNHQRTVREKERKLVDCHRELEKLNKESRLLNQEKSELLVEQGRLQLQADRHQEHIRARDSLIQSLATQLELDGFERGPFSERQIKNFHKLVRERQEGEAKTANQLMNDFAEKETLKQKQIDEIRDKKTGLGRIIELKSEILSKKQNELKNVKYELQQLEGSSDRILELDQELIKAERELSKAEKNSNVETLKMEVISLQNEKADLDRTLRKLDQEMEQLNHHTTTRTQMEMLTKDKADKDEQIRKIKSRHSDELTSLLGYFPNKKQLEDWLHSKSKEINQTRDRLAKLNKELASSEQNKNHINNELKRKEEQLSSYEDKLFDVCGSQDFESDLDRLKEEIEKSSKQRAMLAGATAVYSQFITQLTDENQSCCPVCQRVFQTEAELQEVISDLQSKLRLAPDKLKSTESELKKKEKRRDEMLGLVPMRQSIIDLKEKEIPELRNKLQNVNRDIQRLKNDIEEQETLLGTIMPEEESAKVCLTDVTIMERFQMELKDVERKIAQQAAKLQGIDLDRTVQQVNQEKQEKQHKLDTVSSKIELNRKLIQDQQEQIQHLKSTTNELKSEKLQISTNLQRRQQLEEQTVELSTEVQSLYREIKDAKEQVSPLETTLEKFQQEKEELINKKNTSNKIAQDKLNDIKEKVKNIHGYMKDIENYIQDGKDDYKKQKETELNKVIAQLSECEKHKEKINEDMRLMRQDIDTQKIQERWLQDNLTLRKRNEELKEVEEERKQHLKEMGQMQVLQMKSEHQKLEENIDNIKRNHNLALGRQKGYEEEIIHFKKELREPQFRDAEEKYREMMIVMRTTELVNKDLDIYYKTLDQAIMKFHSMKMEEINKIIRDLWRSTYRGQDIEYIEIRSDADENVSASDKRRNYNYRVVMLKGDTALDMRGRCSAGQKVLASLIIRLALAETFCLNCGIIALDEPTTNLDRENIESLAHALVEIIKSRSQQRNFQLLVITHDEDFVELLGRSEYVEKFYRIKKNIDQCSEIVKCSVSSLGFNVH

Molecular target: p53-BirA*-FLAG (human) (UniProt P04637)
Experiment: proximity labelling

Substance | binding
SUMO1 (from UniProt P63165 1-97) | binds
structural maintenance of chromosome (SMC) family member (Rad50) (from UniProt Q92878 1-1312) | binds
